The text below walks through data of the supplement of paper PMC10032668.

Amino acid sequences for entries named in this document (tags omitted).
PSMD3, O43242, UniProt O43242, whole entry: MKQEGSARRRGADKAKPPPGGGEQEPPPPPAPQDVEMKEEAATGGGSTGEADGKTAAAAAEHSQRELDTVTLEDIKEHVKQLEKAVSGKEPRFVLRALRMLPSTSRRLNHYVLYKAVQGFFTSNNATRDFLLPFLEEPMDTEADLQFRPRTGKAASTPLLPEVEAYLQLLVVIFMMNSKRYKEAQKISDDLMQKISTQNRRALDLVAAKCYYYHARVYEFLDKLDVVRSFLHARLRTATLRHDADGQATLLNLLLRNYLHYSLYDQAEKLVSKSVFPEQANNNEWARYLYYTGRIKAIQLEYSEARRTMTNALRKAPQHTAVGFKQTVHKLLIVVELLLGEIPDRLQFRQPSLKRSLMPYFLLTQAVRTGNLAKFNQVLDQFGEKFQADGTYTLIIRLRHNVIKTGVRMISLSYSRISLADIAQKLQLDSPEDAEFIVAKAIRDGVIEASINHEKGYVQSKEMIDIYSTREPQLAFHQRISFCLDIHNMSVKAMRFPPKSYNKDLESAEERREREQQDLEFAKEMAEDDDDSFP
SMN2, Q16637, UniProt Q16637, whole entry: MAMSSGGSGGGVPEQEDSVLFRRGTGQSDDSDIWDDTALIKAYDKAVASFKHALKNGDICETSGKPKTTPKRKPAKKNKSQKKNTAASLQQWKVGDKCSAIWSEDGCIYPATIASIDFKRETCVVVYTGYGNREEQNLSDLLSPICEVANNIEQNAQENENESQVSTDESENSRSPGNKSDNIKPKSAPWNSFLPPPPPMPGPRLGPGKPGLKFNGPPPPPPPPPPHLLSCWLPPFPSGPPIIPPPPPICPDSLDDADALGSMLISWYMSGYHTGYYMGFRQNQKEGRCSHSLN
MPG, P29372, UniProt P29372, whole entry: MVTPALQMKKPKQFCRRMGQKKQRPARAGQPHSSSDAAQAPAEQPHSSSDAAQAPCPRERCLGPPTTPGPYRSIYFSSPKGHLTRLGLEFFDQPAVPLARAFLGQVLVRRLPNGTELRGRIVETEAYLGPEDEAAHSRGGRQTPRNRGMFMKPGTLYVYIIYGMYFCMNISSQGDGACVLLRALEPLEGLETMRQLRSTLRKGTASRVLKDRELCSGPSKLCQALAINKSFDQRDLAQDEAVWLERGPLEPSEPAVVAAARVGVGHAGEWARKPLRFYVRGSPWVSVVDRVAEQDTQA
NDUFA6, P56556, UniProt P56556, whole entry: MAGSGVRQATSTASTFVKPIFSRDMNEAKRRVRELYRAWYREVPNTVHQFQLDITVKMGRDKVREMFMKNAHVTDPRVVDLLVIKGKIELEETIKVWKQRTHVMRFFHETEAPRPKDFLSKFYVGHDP
COX6B1, P14854, UniProt P14854, whole entry: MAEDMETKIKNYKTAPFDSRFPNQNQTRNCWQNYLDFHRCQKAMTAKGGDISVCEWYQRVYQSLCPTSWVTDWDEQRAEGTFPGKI
ITPR2, Q14571, UniProt Q14571, whole entry: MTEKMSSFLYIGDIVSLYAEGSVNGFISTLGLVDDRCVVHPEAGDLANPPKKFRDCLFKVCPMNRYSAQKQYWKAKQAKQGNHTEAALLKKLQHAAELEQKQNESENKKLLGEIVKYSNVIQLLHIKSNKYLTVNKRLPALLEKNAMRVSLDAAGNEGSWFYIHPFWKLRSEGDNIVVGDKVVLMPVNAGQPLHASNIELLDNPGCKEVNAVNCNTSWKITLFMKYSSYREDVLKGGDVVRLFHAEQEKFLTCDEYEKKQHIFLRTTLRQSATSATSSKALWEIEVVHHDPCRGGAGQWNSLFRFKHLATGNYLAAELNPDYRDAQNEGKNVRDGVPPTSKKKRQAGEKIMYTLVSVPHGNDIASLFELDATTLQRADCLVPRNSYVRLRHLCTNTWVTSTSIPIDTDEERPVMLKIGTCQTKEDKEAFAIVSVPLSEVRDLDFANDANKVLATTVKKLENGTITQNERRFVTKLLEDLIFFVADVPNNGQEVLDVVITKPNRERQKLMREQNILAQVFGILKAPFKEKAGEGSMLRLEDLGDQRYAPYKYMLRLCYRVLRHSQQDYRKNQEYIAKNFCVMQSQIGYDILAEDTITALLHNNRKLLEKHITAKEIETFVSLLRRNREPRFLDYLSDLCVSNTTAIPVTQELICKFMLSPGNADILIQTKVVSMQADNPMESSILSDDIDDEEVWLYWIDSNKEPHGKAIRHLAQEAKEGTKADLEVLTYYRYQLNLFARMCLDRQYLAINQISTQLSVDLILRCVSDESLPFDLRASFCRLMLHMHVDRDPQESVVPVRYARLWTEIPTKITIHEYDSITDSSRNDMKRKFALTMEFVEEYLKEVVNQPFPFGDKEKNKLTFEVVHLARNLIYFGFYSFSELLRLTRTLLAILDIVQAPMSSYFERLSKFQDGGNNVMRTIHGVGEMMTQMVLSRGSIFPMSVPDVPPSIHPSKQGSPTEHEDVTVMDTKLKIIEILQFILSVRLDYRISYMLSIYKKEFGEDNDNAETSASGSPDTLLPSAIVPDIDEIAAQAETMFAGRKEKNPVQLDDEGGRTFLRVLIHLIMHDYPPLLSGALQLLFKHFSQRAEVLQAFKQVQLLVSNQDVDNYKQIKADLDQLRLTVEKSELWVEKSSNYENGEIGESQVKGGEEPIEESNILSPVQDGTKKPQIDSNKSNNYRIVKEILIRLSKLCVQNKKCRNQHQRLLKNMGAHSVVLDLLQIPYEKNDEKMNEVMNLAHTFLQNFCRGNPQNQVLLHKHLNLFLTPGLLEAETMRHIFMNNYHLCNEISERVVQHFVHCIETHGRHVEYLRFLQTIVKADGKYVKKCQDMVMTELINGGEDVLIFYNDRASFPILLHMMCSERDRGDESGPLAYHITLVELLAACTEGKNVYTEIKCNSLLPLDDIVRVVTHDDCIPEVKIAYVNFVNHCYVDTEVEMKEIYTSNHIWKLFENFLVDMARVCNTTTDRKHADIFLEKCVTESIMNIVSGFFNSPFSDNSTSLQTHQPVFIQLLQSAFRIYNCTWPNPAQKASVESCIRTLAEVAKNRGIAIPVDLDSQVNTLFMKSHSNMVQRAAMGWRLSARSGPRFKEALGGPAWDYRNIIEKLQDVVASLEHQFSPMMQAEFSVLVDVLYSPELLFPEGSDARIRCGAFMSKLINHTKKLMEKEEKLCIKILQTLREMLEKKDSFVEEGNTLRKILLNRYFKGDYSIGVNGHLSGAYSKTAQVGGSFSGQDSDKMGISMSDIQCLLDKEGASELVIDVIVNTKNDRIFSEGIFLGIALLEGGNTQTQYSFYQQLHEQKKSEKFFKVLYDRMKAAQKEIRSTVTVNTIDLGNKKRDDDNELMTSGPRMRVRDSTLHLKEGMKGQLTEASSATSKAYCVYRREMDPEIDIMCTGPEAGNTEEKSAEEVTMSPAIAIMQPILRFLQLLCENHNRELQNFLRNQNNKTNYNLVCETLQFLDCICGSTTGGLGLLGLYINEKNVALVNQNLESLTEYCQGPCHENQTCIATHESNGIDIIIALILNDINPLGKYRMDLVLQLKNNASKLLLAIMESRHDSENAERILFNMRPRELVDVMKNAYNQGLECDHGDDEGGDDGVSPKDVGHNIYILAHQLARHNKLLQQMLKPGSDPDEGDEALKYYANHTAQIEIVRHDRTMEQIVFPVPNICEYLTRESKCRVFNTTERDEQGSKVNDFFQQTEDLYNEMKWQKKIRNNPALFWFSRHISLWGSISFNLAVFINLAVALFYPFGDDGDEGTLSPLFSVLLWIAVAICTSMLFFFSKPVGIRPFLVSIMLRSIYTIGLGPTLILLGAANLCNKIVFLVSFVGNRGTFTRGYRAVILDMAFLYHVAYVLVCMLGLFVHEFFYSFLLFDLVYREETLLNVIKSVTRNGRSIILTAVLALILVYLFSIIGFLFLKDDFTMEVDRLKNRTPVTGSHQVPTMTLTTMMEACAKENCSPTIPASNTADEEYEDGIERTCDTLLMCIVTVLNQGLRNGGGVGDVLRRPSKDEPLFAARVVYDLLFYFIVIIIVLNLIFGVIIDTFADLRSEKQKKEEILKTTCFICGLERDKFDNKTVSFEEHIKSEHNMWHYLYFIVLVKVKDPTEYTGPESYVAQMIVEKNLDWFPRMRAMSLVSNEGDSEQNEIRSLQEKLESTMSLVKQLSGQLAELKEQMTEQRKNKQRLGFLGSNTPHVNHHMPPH
POLR1C, O15160, UniProt O15160, whole entry: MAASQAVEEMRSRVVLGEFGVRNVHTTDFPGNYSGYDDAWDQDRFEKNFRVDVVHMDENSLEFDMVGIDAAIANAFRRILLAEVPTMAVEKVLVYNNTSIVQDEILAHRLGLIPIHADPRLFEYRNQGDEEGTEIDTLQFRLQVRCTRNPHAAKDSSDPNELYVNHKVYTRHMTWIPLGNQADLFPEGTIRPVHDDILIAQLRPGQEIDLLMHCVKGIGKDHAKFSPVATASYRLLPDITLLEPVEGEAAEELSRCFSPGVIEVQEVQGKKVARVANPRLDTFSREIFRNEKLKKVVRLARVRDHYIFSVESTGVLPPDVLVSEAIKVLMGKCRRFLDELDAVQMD
TF, P02787, UniProt P02787, whole entry: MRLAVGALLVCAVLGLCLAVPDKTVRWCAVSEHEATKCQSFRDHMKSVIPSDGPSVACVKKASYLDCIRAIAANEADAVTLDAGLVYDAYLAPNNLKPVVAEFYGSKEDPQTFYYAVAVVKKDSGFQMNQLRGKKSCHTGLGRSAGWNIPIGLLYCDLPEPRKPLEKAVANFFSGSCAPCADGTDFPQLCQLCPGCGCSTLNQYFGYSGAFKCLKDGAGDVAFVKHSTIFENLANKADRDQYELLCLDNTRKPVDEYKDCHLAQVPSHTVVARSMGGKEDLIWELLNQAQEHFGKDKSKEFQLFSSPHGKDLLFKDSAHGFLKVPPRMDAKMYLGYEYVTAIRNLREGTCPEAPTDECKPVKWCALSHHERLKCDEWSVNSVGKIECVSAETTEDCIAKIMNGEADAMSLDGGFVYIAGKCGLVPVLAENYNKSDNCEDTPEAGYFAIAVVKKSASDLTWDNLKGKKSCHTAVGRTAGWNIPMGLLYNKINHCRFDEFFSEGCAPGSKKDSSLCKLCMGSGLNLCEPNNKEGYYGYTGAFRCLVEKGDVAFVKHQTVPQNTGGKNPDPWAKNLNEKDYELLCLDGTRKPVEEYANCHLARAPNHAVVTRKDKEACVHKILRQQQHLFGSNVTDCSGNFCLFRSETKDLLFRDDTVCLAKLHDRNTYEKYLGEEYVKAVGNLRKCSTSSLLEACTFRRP
MTPN, P58546, UniProt P58546, whole entry: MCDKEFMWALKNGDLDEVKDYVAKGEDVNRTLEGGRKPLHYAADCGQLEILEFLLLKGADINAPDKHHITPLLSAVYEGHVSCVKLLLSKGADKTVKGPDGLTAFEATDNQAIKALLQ
PCBP2, Q15366, UniProt Q15366, whole entry: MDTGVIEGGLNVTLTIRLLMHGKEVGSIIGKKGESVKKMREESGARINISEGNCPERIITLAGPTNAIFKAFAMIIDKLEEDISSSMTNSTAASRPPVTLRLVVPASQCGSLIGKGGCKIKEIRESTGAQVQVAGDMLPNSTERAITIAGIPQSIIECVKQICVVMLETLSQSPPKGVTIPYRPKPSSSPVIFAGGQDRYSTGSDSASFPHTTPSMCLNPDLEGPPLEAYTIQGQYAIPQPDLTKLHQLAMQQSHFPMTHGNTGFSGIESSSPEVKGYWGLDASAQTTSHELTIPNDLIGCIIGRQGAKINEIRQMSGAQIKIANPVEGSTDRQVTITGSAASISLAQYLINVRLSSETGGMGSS
PES1, O00541, UniProt O00541, whole entry: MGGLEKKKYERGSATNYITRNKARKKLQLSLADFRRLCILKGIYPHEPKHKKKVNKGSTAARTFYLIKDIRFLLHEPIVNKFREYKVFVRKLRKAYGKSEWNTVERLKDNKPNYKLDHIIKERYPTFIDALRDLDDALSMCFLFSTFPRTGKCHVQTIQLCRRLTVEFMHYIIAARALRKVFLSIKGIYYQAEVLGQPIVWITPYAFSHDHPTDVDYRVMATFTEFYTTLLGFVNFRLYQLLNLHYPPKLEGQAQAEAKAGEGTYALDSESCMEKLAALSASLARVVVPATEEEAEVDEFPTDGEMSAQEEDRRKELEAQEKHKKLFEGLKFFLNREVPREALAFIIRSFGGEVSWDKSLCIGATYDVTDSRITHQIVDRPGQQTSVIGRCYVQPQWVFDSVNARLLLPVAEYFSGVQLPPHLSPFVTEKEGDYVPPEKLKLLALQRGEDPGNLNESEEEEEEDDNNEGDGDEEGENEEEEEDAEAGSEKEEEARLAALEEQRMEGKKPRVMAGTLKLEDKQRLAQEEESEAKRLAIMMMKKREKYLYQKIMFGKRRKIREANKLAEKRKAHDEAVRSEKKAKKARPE
PFN1, P07737, UniProt P07737, whole entry: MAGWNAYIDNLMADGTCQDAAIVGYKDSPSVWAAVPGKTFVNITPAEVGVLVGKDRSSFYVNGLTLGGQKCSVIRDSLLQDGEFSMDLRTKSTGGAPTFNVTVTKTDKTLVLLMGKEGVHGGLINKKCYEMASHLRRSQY

Holding throughout (assay): PRISMA enrichment of interactor (LFQ) in peptide spot vs all other peptide spots (log2 fold change); higher = stronger / more specific binding of the interactor to the peptide
The target in test [1] is ARHGEF2, Q92974. As to the method: (§1)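 PRISMA: 15-aa overlapping tiles (offset 8 aa) of 60 microproteins, plus SOS1/GLUT1 control peptides, were spot-synthesized on cellulose membranes in triplicate. Membranes were incubated with benzonase-treated HEK293T lysate, and bound proteins were identified by LC-MS/MS with LFQ. Enrichment is the log2 fold change of each protein in one spot versus all other spots. Only interactors passing the significance cutoff are listed.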

In test [2] the target is ASMTL, O95671. As to the method:
as §1

Test [3] has as its target C11orf98, E9PRG8. As to the method: as §1
The target of test [4] is CDC37, Q16543. As to the method:
as §1

Test [5] deals with DAB2IP, Q5VWQ8. The method, then:
as §1

Test [6] addresses DEF8, Q6ZN54. The method, then: as §1
The target in test [7] is FLOT1, O75955. As to the method: as §1
Test [8] concerns the target GNG12, Q9UBI6. The method, then:
as §1

The target in test [9] is PSMD3, O43242. The method, then:
as §1

Test [10] deals with SMN2, Q16637. The method, then:
as §1

Test [11] addresses CBX4, O00257. As to the method: as §1
Test [12] concerns the target LARS, Q9P2J5. The method, then:
as §1

Test [13] has as its target PSMB5, P28074. The method, then: as §1
Test [14] deals with PYCR3, Q53H96. As to the method: as §1
Test [15] concerns the target ARL3, P36405. As to the method:
as §1

Test [16] has as its target CBX8, Q9HC52. As to the method: as §1
Test [17] has as its target CCDC58, Q4VC31. The method, then: as §1
Test [18] concerns the target CHPT1, Q8WUD6. As to the method: as §1
Substrate in test [19]: CNP, P09543
The method, then: as §1

Test [20] addresses EHD1, Q9H4M9. The method, then:
as §1

The target of test [21] is FGA, P02671. As to the method:
as §1

The target in test [22] is HP, P00738. The method, then: as §1
In test [23] the target is MPG, P29372. As to the method:
as §1

For test [24], the target named is NDUFA6, P56556. The method, then: as §1
Test [25] addresses NOB1, Q9ULX3. The method, then: as §1
Test [26] deals with OSTC, Q9NRP0. As to the method: as §1
Test [27] concerns the target PDHA1, P08559. As to the method:
as §1

The target in test [28] is RBM38, Q9H0Z9. The method, then: as §1
In test [29] the target is VCL, P18206. As to the method: as §1
Test [30] addresses ZNF638, Q14966. As to the method: as §1
Test [31] concerns the target ARGLU1, Q9NWB6. As to the method: as §1
In test [32] the target is COX6B1, P14854. The method, then: as §1
For test [33], the target named is SPTAN1, Q13813. The method, then:
as §1

Test [34] concerns the target VCP, P55072. As to the method: as §1
The target of test [35] is ARL2, P36404. The method, then:
as §1

The target of test [36] is DDX51, Q8N8A6. The method, then: as §1
The target of test [37] is IFRD2, Q12894. As to the method:
as §1

Test [38] concerns the target ITPR2, Q14571. As to the method:
as §1

The target in test [39] is NUP43, Q8NFH3. The method, then: as §1
The target in test [40] is PDCL3, Q9H2J4. As to the method: as §1
Test [41] has as its target TFB2M, Q9H5Q4. The method, then:
as §1

In test [42] the target is ARIH1, Q9Y4X5. As to the method: as §1
The target of test [43] is BRAT1, Q6PJG6. As to the method:
as §1

For test [44], the target named is C11orf58, O00193. The method, then: as §1
Test [45] has as its target COL4A3BP, Q9Y5P4. The method, then: as §1
The target of test [46] is COPS8, Q99627. The method, then:
as §1

Test [47] has as its target EIF5A, P63241. As to the method:
as §1

Test [48] has as its target ENSA, O43768. As to the method:
as §1

In test [49] the target is FOXK1, P85037. As to the method:
as §1

In test [50] the target is NAP1L1, P55209. As to the method: as §1
The target in test [51] is PDXDC1, Q6P996. As to the method:
as §1

In test [52] the target is POLR1C, O15160. As to the method: as §1
Test [53] addresses POP1, Q99575. As to the method: as §1
Test [54] concerns the target PTBP1, P26599. As to the method:
as §1

In test [55] the target is PTMA, P06454. The method, then:
as §1

Test [56] concerns the target RBMS1, P29558. As to the method:
as §1

For test [57], the target named is RNPS1, Q15287. As to the method: as §1
Test [58] has as its target SEH1L, Q96EE3. The method, then: as §1
In test [59] the target is SHMT1, P34896. As to the method:
as §1

In test [60] the target is SRSF7, Q16629. The method, then:
as §1

Test [61] deals with TF, P02787. As to the method:
as §1

The target of test [62] is TRAFD1, O14545. As to the method: as §1
Test [63] deals with TXNDC12, O95881. The method, then:
as §1

Test [64] has as its target ARL6IP4, Q66PJ3. The method, then: as §1
For test [65], the target named is BAZ1B, Q9UIG0. The method, then: as §1
Test [66] deals with CBSL. The method, then: as §1
Test [67] has as its target COG4, Q9H9E3. As to the method:
as §1

Test [68] deals with DDX31, Q9H8H2. As to the method: as §1
In test [69] the target is DNAJA1, P31689. As to the method:
as §1

Test [70] has as its target HCFC1, P51610. As to the method: as §1
Test [71] has as its target MTPN, P58546. As to the method: as §1
In test [72] the target is PCBP2, Q15366. The method, then:
as §1

For test [73], the target named is PES1, O00541. As to the method: as §1
Substrate in test [74]: PNN, Q9H307
The method, then:
as §1

For test [75], the target named is RPF2, Q9H7B2. The method, then:
as §1

Test [76] concerns the target ZC3H11A, O75152. The method, then: as §1
Test [77] has as its target ZC3H18, Q86VM9. As to the method: as §1
In test [78] the target is YLPM1, P49750. The method, then: as §1
Test [79] deals with ZNF622, Q969S3. As to the method: as §1
Test [80] has as its target hCG_1984214. As to the method:
as §1

In test [81] the target is DLGAP5, Q15398. As to the method:
as §1

For test [82], the target named is EIF1AD, Q8N9N8. The method, then:
as §1

Test [83] addresses EIF4G2, P78344. As to the method: as §1
Test [84] addresses MAGT1, Q9H0U3. As to the method:
as §1

The target of test [85] is MRPS21, P82921. As to the method:
as §1

In test [86] the target is PDK3, Q15120. The method, then: as §1
The target of test [87] is PFN1, P07737. As to the method:
as §1

Test [88] has as its target SART1, O43290. The method, then: as §1
Test [89] concerns the target SEMG2, Q02383. The method, then: as §1

The other results are listed elsewhere or left out. The list holds hits alone, and they repeat only in part.

B1: JPX (peptide)
chain: AITASLRGLQGVRSM
Regarding B1, the “PRISMA enrichment of interactor (log2)” value is 4.66 in test [1]; 4.92 in test [2]; 5.62 in test [3]; 4.64 in test [4]; 3.76 in [5]; 5.27 in test [6]. Besides, the “PRISMA enrichment of interactor (log2)” value in test [7] is 4.74; in test [8], 5.9; in test [9], 6.33; in [10] it was 4.64.

B2: IDI2-AS1 (peptide)
chain: LSRTFSSRKVVKAHA
Consider B2, for which the “PRISMA enrichment of interactor (log2)” value in test [1] came out at 4.51; in [11], 4.22; in test [12] it was 5.37; in [13], 4.03; in test [14] it was 4.88.

B3: TUG1 (peptide)
chain: AIRRGVVRVVGGGGQ
B3: the “PRISMA enrichment of interactor (log2)” value came to 5.43 in [15]; 6.03 in test [16]; 5.59 in test [17]; 4.21 in test [18]; 4.48 in [19]; 5 in test [20]. Moreover, the “PRISMA enrichment of interactor (log2)” value in [21] came out at 8.21; in [22] it was 4.78; in [23], 4.83; in test [24] it was 4.64; in test [25], 4.87; in test [26] it was 4.58. Moreover, the “PRISMA enrichment of interactor (log2)” value came to 6.88 in [27], 5.37 in test [28], 5.88 in test [29] and 5.17 in [30].

B4: RP11-464C19.3 (peptide)
chain: DTFGGPGRRVCWWGR
Consider B4, for which the “PRISMA enrichment of interactor (log2)” value in [31] was 8.27; in test [32] it was 5.25; in test [33], 5.11; in [34], 7.38.

B5: RP11-12K22.1 (peptide)
chain: RPALLQMLKKVLPRK
Take B5: the “PRISMA enrichment of interactor (log2)” value in test [35] was 7.4; in [36], 5.53; in test [37], 6.11; in [38] it was 6.09; in test [39] it was 5.5; in test [40] it was 6.24. Besides, the “PRISMA enrichment of interactor (log2)” value in test [41] stood at 5.59.

B6: PALLD (peptide)
chain: PSMTPSQTCRKKARI
Regarding B6, the “PRISMA enrichment of interactor (log2)” value turned out to be 4.83 in test [42]; 6 in test [43]; 5.25 in test [44]; 5.75 in [45]; 3.64 in test [46]; 4.62 in test [47]. Also, the “PRISMA enrichment of interactor (log2)” value in test [48] worked out at 5.93; in test [49] it was 4.93; in [50] it was 5.14; in [51], 4.03; in [52] it was 4.66; in test [53], 6.21. Further, the “PRISMA enrichment of interactor (log2)” value in test [54] was 5.37; in test [55] it was 5.49; in test [56] it was 5.61; in test [57], 4.87; in test [58] it was 6.43; in test [59], 5.11. The “PRISMA enrichment of interactor (log2)” value is 6.38 in [60]; 4.35 in [61]; 7.78 in test [62]; 4.84 in test [63]; 5 in test [29].

B7: MIEF-MP (peptide)
chain: ARERQLEKGLVFLNG
On to B7, for which the “PRISMA enrichment of interactor (log2)” value came to 4.31 in test [64]; 9.23 in test [65]; 6.83 in test [66]; 6.19 in test [67]; 4.93 in test [68]; 7.06 in test [69]. Moreover, the “PRISMA enrichment of interactor (log2)” value in [20] amounted to 4.76; in [70], 6.01; in test [71], 5.56; in test [72] it was 5.21; in [73], 6.06; in test [74] it was 5.01. In addition, the “PRISMA enrichment of interactor (log2)” value worked out at 6.3 in test [75], 7.72 in [76] and 7.91 in test [77].

B8: SNHG8 (peptide)
chain: RSQDIGRSGAALETL
For the molecule B8, the figures for the “PRISMA enrichment of interactor (log2)” value in [78], in test [79] and in [80] were 6.03, 4.59 and 4.23, respectively.

B9: TBX5-AS1 (peptide)
chain: EPRWAGNRGLGPAGA
B9: the “PRISMA enrichment of interactor (log2)” value turned out to be 4.74 in test [31]; 5.24 in test [81]; 5.15 in test [82]; 4.71 in [83]; 8.32 in [84]; 7.35 in test [85]. Moreover, the “PRISMA enrichment of interactor (log2)” value in [86] is 3.86; in [87] it was 5.47; in test [88], 4.47; in [89], 5.17.
